# Laboratory results taken from paper PMC5668434, “Modulation of telomere protection by the PI3K/AKT pathway” (Nature Communications, 2017).
# Chains of the proteins cited; added tags and fusions are not shown.
# UniProt P70371, whole entry S344A: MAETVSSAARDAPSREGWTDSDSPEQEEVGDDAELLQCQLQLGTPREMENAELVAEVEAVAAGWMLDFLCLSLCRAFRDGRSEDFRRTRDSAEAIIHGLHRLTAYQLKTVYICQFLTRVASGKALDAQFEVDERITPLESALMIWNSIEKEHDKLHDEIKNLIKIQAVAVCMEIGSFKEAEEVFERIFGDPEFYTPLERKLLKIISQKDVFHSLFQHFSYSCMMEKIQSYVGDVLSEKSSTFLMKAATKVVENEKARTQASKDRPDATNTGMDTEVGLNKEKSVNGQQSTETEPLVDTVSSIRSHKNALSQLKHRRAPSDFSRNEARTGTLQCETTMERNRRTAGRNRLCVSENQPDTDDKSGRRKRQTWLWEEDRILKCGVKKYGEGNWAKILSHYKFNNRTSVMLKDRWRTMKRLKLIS
# UniProt P70371, whole entry T330A: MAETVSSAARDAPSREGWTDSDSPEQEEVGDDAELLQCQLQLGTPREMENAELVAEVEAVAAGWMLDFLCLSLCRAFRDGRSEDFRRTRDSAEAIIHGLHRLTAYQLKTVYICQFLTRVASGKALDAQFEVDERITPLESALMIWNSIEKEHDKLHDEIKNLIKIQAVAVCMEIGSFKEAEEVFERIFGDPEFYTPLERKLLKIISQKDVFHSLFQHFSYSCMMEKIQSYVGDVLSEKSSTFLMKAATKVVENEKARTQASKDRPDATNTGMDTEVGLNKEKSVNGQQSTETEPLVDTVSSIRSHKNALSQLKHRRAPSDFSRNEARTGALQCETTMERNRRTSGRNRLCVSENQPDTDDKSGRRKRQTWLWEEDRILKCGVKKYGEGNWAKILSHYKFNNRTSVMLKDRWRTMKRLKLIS
# UniProt P70371, whole entry T248A: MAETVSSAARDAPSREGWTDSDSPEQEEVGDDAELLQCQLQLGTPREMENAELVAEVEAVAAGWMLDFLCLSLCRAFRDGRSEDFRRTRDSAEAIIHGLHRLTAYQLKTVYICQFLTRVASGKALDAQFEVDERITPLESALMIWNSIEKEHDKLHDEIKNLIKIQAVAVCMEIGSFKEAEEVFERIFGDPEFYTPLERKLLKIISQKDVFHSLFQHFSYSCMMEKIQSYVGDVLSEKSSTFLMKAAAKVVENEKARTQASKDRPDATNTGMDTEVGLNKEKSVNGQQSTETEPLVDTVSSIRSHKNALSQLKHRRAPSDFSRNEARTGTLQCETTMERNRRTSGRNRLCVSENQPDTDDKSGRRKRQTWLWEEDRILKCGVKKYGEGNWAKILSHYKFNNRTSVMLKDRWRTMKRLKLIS
# The exact form of at least one protein or probe is not confirmed. For part of these data: The comparison behind a weaker result is the experiment's own reference, which may not be listed here.
# Assays:
# Assay in all cases: EMSA
# Conditions in all cases: 1 ug protein; 20 mM HEPES-KOH pH 7.9, 150 mM KCl, 5% glycerol, 4% Ficoll, 1 mM EDTA, 0.1 mM MgCl2, 0.5 mM DTT, 20 ug BSA, 1 ug poly(dI-dC), 30 ul, 20 min, room temperature; recombinant protein; protein details: N-terminal 6xHis and GST; label: 32P 5'-end label (T4 PNK)
# GST-TRF1 S344A (mouse) = GST-TRF1 S344A (mouse) (UniProt P70371)
# GST-TRF1 T330A (mouse) = GST-TRF1 T330A (mouse) (UniProt P70371)
# GST-TRF1 T248A (mouse) = GST-TRF1 T248A (mouse) (UniProt P70371)
sequence,measurement,setting,value
GGGTTAGGGTTAGGGTTAGGGTTAGGGTTAGGGTTAGGGTTAGGGCCCCTC (double strand) [ds(TTAGGG)7 telomeric probe],binding result,GST-TRF1 S344A (mouse),binds more weakly
same,binding result,GST-TRF1 T330A (mouse),binds more weakly
same,binding result,GST-TRF1 T248A (mouse),binds
